{"source": "PubChem BioAssay AID720533", "about": "(National Center for Advancing Translational Sciences (NCATS), 2013)", "note": "Values joined by “and” are separate entries in the source; they are usually repeats but may differ in a detail not shown here. Equal entries are not always repeated. In all, about 18,000 compounds went through this assay and about 750 (4.2%) were called active. Inconclusive means that the source gave no clear call. Such entries were picked first, then a sample of the others. The call rests on the fitted dose curve; tested in HEK293 cells. Potencies beside an inconclusive call are fits to weak or partial responses and may not hold up. On the % scale 0 is the no-effect control and ±100 the full control effect; potency means the concentration at half of the fitted maximal effect."}
{"experiment": "qHTS for Inhibitors of binding or entry into cells for Lassa Virus", "conditions": "Lassa virus pseudotyped entry inhibition, cell-based qHTS; activity change, negative = inhibition: at 49.2 µM (top of the series) unless noted"}
{"smiles": "CCN(CC)CCC(=O)N1c2ccccc2Sc2ccc(Cl)cc21", "Potency": "inconclusive: 31.6 µM [inhibitor, partial curve]"}
{"smiles": "C[C@H]1C[C@@H](C)O[C@@]2(C1)C(=O)Nc1ccccc12", "activity change, negative = inhibition": "inactive: 5.31% [at 8.59 µM]"}
{"smiles": "COCCNC(=O)COc1ccc(OCCNC[C@H](O)COc2ccccc2)cc1", "activity change, negative = inhibition": "inactive: -1.29%"}
{"smiles": "C=C1C(c2ccc(C)cc2)=CCc2cc(C)cc(C)c21", "Potency": "inactive and inconclusive: 35.5 µM [inhibitor, single point]"}
{"smiles": "COc1cc2c(C(=O)c3ccccc3)c3c4c(cc(OC)c(OC)c4c2cc1OC)CCN3C", "Potency": "inconclusive: 31.6 µM [inhibitor, partial curve]"}
{"smiles": "O=C(NCCCN1CCCCCC1)[C@@H](c1ccccc1)C1CCCCC1", "Potency": "inconclusive: 28.2 µM [inhibitor, partial curve]"}
{"smiles": "COC1C=CC23c4cc5c(cc4CN(CC2O)C3C1)OCO5", "note": "(stereo not drawn)", "Potency": "active: 7.08 µM"}
{"smiles": "CC1=C[C@@H](COc2ccccc2)O[C@@]2(C1)C(=O)N(Cc1ccccc1)c1ccccc12", "activity change, negative = inhibition": "inactive: 7.44% [at 8.59 µM]"}
{"smiles": "COc1nn(CSP(=S)(OC)OC)c(=O)s1", "Potency": "inconclusive: 50.1 µM [inhibitor, partial curve]"}
{"smiles": "c1cc(CN2CCCCC2)cc(OCCCNc2nc3ccccc3s2)c1", "Potency": "inactive and inconclusive: 35.5 µM [inhibitor, single point]"}
{"smiles": "C=C[C@]1(C)C[C@@H](OC(=O)CSC(C)(C)CNC(=O)[C@H](N)C(C)C)[C@]2(C)[C@H](C)CC[C@]3(CCC(=O)[C@H]32)[C@@H](C)[C@@H]1O", "activity change, negative = inhibition": "inactive: 0.107%"}
{"smiles": "CC(=O)O[C@@]1(C(C)=O)CCC2C3C=C(Cl)C4=CC(=O)C5CC5[C@@]4(C)C3CC[C@]21C", "note": "(stereo partly drawn)", "Potency": "inconclusive: 15.8 µM [inhibitor, single point]"}
{"smiles": "NC[C@H](O)c1ccc(O)c(O)c1", "activity change, negative = inhibition": "inactive: 0.455%"}
{"smiles": "COC(=O)C1CCCCN1Cc1ccc2c(c1)CN(C(=O)c1cc(C)nc3cc(F)ccc13)CCO2", "note": "(stereo not drawn)", "activity change, negative = inhibition": "inactive: -6.4%"}
{"smiles": "CC(C)(C)C(=O)OCOC(=O)C1N2C(=O)CC2S(=O)(=O)C1(C)C", "note": "(stereo not drawn)", "activity change, negative = inhibition": "inactive: -5.73%"}
{"smiles": "CC(=O)Nc1ccc(S(=O)(=O)N2CCc3nc(COc4ccccc4)c4c(c3C2)CO[C@@H](C)C4)cc1", "activity change, negative = inhibition": "inactive: 2.21% [at 8.59 µM]"}
{"smiles": "CCN(CC)C(=O)N[C@@H]1C=C2c3cccc4[nH]cc(c34)C[C@@H]2N(C)C1", "Potency": "inconclusive: 28.2 µM [inhibitor, partial curve, poor fit]"}
{"smiles": "COC(=O)[C@H](CC(C)C)NC(=O)c1ccc(NC[C@@H](N)CS)cc1-c1cccc2ccccc12", "Potency": "active: 11.2 µM"}
{"smiles": "O=C(NCCc1ccccc1)c1ccc(-c2ccccc2Cl)o1", "activity change, negative = inhibition": "inactive: 6.91%"}
{"smiles": "Cc1ncc2c(c1CNC(=O)c1ccccc1F)CCN(C(=O)c1ccc3c(c1)OCCO3)C2", "Potency": "inconclusive: 282 µM [inhibitor, partial curve, poor fit]"}
{"smiles": "CC(C)C[C@@H](NC(=O)OCC1c2ccccc2-c2ccccc21)C(=O)O", "activity change, negative = inhibition": "inactive: 14%"}
{"smiles": "CC[C@H](C)[C@H](NC(=O)[C@@H]1CCCN1C(=O)[C@H](Cc1cnc[nH]1)NC(=O)[C@@H](NC(=O)[C@H](Cc1ccc(O)cc1)NC(=O)[C@@H](NC(=O)[C@H](CCCN=C(N)N)NC(=O)CNC)C(C)C)[C@@H](C)CC)C(=O)O", "activity change, negative = inhibition": "inactive: -12.6%"}
{"smiles": "COc1cc2c(cc1OC)C(C(C(=O)N(CCc1ccc(OC)c(OC)c1OC)CCc1ccc(OC)c(OC)c1OC)c1ccccc1)=NCC2", "note": "(stereo not drawn)", "Potency": "inconclusive: 22.4 µM [inhibitor, single point]"}
{"smiles": "COC(=O)c1c(C(=O)OC)c2c3ccccc3cc(-c3ccccc3)n2c1C(=O)OC", "activity change, negative = inhibition": "inactive: -14.8% [at 8.59 µM]"}
{"smiles": "CCCCC1C(=O)N(c2ccccc2)N(c2ccc(O)cc2)C1=O", "note": "(stereo not drawn)", "Potency": "inconclusive: 35.5 µM [inhibitor, single point]"}
{"smiles": "C#C[C@]1(O)CC[C@H]2[C@@H]3CCC4=CC(=O)CCC4=C3C=C[C@@]21CC", "Potency": "inconclusive: 22.4 µM [inhibitor, partial curve]"}
{"smiles": "CN(CCc1ccccc1)c1cc2c(c3c1ccn3C)C1CCC2O1", "note": "(stereo not drawn)", "activity change, negative = inhibition": "inactive: 20.5%"}
{"smiles": "Cc1ccccc1Cc1nc2cccnc2n1C1CCN(C(=O)CC2NC(=O)c3ccccc32)CC1", "note": "(stereo not drawn)", "Potency": "inconclusive: 22.4 µM [inhibitor, partial curve, poor fit]"}
{"smiles": "CCCCNC(=O)NS(=O)(=O)c1ccc(N)cc1", "Potency": "inconclusive: 0.562 µM [inhibitor, single point]"}
{"smiles": "COc1ccc2c3c1O[C@H]1C[C@H](O)C=C[C@@]31CCN(C)C2", "activity change, negative = inhibition": "inactive: 3.8%"}
{"smiles": "COC(=O)C1=C(C)N(Cc2ccccc2)C(=O)NC1c1ccco1", "note": "(stereo not drawn)", "activity change, negative = inhibition": "inactive: 18% [at 8.59 µM]"}
{"smiles": "CC(NC(=O)c1cccnc1)c1nnc2n1CCN(Cc1ccc(-c3ccccc3)cc1)CC2", "note": "(stereo not drawn)", "activity change, negative = inhibition": "inactive: 0.566%"}
{"smiles": "COc1cc(CN2CCN(CCCSc3cc(C(C)(C)C)c(O)c(C(C)(C)C)c3)CC2)cc(OC)c1OC", "Potency": "active: 20 µM"}
{"smiles": "COCc1c(C(=O)N2CCCCC2c2cccnc2)cnn1-c1ncc2c(n1)-c1ccccc1CCC2", "note": "(stereo not drawn)", "Potency": "inconclusive: 20 µM [inhibitor, partial curve]"}
{"smiles": "Cc1ccc(OCC(O)C(C)NC(C)C)c2c1CCC2", "note": "(stereo not drawn)", "Potency": "inconclusive: 35.5 µM [inhibitor, single point]"}
{"smiles": "Cc1cc2oc(=O)cc(-c3ccccc3)c2c(C)c1-c1ccc(N(C)C)cc1", "Potency": "inconclusive: 1.78 µM [inhibitor, partial curve]"}
{"smiles": "O[C@H]1C[C@H](c2ccc(Cl)cc2)N(Cc2cccs2)C[C@H]1n1cc(-c2ccc(F)cc2)nn1", "Potency": "inconclusive: 25 µM [inhibitor, single point]"}
{"smiles": "CCCCCCCCCCCCCCCC(=O)N[C@@H](COP(=O)(O)O)C(=O)O", "Potency": "inactive"}
{"smiles": "O=C1[C@H]2CCC=C[C@H]2[C@H](c2ccccc2Br)N1Cc1ccccc1", "Potency": "inconclusive: 39.8 µM [inhibitor, single point]"}
{"smiles": "CC(C)=CCc1c2c(c3occ(-c4ccc(O)c(O)c4)c(=O)c3c1O)C=CC(C)(C)O2", "Potency": "inconclusive: 22.4 µM [inhibitor, single point]"}
{"smiles": "CC(=O)Nc1ccn(C2COC(COC(=O)c3ccccc3)O2)c(=O)n1", "note": "(stereo not drawn)", "Potency": "inconclusive: 35.5 µM [inhibitor, single point]"}
{"smiles": "Cc1ccc(C(=O)Nc2cccc(-c3nc(CNC(=O)C4CCCCC4)c(C)o3)c2)s1", "Potency": "inconclusive: 35.5 µM [inhibitor, single point]"}
{"smiles": "CCCCC(CC)CN=C(N)NC(N)=NCCCCCCN=C(N)NC(N)=NCC(CC)CCCC", "note": "(stereo not drawn)", "Potency": "inconclusive: 17.8 µM [inhibitor, single point]"}
{"smiles": "CCCCCCNC(=O)n1cc(F)c(=O)[nH]c1=O", "Potency": "inconclusive: 8.91 µM [inhibitor, partial curve]"}
{"smiles": "CC(C)CC1C(=O)N(Cc2cn(Cc3ccco3)nn2)CCS(=O)(=O)N1Cc1ccc(-c2ccc(Cl)c(Cl)c2)cc1", "note": "(stereo not drawn)", "Potency": "inconclusive: 9.95 µM [inhibitor, partial curve, poor fit]"}
{"smiles": "CC#C[C@]1(O)CC[C@H]2[C@@H]3CCC4=CC(=O)CCC4=C3[C@@H](c3ccc(N(C)C)cc3)C[C@@]21C", "Potency": "active: 31.6 µM"}
{"smiles": "O=C1NC(=O)c2cc(Nc3ccccc3)c(Nc3ccccc3)cc21", "Potency": "active: 11.2 µM"}
{"smiles": "COc1ccc2cnoc(=O)c2c1OC", "Potency": "inconclusive: 15.8 µM [inhibitor, single point]"}
{"smiles": "Cn1ccc2c(-c3ccc(C(F)(F)F)cc3)cc3c(c21)C1CCC3O1", "note": "(stereo not drawn)", "Potency": "inconclusive: 28.1 µM [inhibitor, single point]"}
{"smiles": "CN(CCCN1c2ccccc2CCc2ccccc21)CC(=O)c1ccc(Cl)cc1", "Potency": "inconclusive: 35.5 µM [inhibitor, single point]"}
{"smiles": "NCC(CC(=O)O)c1ccc(Cl)cc1", "note": "(stereo not drawn)", "Potency": "inconclusive: 22.4 µM [inhibitor, single point]"}
{"smiles": "O=S1(=O)c2c(F)cccc2OC(COCc2ccccc2)CN1C1CCCC1", "note": "(stereo not drawn)", "Potency": "inconclusive: 35.3 µM [inhibitor, single point]"}
{"smiles": "CCCCN(CCCC)Cc1cc(=O)oc2cc(C)cc(C)c12", "activity change, negative = inhibition": "inactive: 6.03%"}
{"smiles": "CC(C)[C@]12O[C@H]1[C@@H]1O[C@]13[C@]1(O[C@H]1C[C@H]1C4=C(CC[C@@]13C)C(=O)OC4)[C@@H]2O", "Potency": "inconclusive: 2.82 µM [inhibitor, full curve, poor fit]"}
{"smiles": "Clc1ccc2c(c1)CCc1cccnc1C2=C1CCNCC1", "Potency": "active: 25.1 µM"}
{"smiles": "COc1cc2c(c(OC)c1OC)-c1ccc(OC)c(=O)cc1C(NC(C)=O)CC2", "note": "(stereo not drawn)", "Potency": "inconclusive: 0.891 µM [inhibitor, full curve]"}
{"smiles": "COc1ccccc1N1CCN(c2nc(CNC(=O)c3ccc4c(c3)OCO4)nc3ccccc23)CC1", "Potency": "inconclusive: 35.5 µM [inhibitor, single point]"}
{"smiles": "Cc1cc(C(=O)NCC2CCC3(CCN(Cc4cc(F)ccc4F)CC3)O2)n(C)n1", "note": "(stereo not drawn)", "activity change, negative = inhibition": "inactive: -12.7%"}
{"smiles": "CN(C(=O)Cc1ccc(Cl)c(Cl)c1)C(CN1CCCC1)c1cccc(N=C=S)c1", "note": "(stereo not drawn)", "Potency": "inconclusive: 31.6 µM [inhibitor, partial curve, poor fit]"}
{"smiles": "COc1cc([C@@H]2c3cc4c(cc3C(OC3OC5COC(C)OC5C(O)C3O)C3COC(=O)[C@@H]32)OCO4)cc(OC)c1O", "note": "(stereo partly drawn)", "Potency": "active: 7.94 µM"}
{"smiles": "CCN(CC)C(=S)S", "Potency": "inconclusive: 35.5 µM [inhibitor, partial curve, poor fit]"}
{"smiles": "CO[C@H]1C=CO[C@@]2(C)Oc3c(C)c(O)c4c(O)c(c(/C=N/N5CCN(C)CC5)c(O)c4c3C2=O)NC(=O)/C(C)=C\\C=C[C@H](C)[C@H](O)[C@@H](C)[C@@H](O)[C@@H](C)[C@H](OC(C)=O)[C@@H]1C", "activity change, negative = inhibition": "inactive: -2.8%"}
{"smiles": "O=C(c1ccc(F)cc1)C1CCN(CCn2c(=O)[nH]c3ccccc3c2=O)CC1", "Potency": "inconclusive: 35.5 µM [inhibitor, single point]"}
